In patent US20120034212A1 (AstraZeneca / MedImmune, published 2012):
No constants are given. Whether binding was seen depends on the method and setting. Some results given as binding are weak or reduced against the parent protein; the word gives no strength.

Sequences of proteins named here, by UniProt entry; tags and fusion partners are left off. A change or cut given only in a name is not applied to a line headed by its entry. Residues count along the entry.
UniProt P79341, residues 28-212: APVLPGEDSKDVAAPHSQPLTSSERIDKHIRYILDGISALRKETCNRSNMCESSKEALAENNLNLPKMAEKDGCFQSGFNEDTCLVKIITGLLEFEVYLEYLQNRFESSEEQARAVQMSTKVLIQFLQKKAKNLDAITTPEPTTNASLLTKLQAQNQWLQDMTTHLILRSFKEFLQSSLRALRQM
UniProt P05231: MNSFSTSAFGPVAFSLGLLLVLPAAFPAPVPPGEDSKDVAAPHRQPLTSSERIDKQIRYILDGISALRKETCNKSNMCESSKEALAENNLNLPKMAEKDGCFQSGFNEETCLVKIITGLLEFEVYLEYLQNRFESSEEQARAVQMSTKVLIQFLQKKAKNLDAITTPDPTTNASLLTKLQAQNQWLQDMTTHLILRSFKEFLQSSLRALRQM

Tests used:
[1] = biological target: cynomolgus IL-6 (cynomolgus) (UniProt P79341); assay: assay not named; Example 1 summarises WO 2008/065378
[2] = biological target: T1, recombinant human IL-6 (human, UniProt P05231 30-212); assay: as above
[3] = biological target: T1, recombinant human IL-6; assay: ELISA, rhuIL-6 as capture reagent
[4] = biological target: T1, recombinant human IL-6; assay: ELISA, E. coli derived recombinant IL-6 as capture reagent (FIG. 2)

binding [1]: binds | binding [2]: binds | binding [3]: binds | binding [4]: binds
B1: Antibody 18 (antibody, V domains shown)
VH: EVQLVESGGGLVQPGGSLRLSCAASGFTISSNYMIWVRQAPGKGLEWVSDLYYYAGDTYYADSVKGRFTMSRDISKNTVYLQMNSLRAEDTAVYYCARWADDHPPWIDLWGRGTLVTVSS
VL: DIQMTQSPSTLSASVGDRVTITCRASQGISSWLAWYQQKPGKAPKVLIYKASTLESGVPSRFSGSGSGTEFTLTISSLQPDDFATYYCQQSWLGGSFGQGTKLEIK
notes: Human anti-IL-6 IgG1 with a wild type Fc region; It is the parent of Antibody 18E; also called Ab 18
